Values are relative to the signal before dosing, not to a vehicle control; the signal also falls without drug.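 Labels refer to human fibroblasts, largely primary: uterine (C12385, HUF), lung (H6013), bone (Hs27A), adrenal (HADF), skin (WS1), plus mammary HMF and breast cancer-associated Hs343T. Cancer lines are basal-like or mesenchymal-like triple-negative breast cancer. The paper counts as hits responses shifting over 3x the replicate standard deviation. The tissue of the other fibroblasts is not given here.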
Tested on: Hs578T
Assay: relative JC-1 red fluorescence (viability) vs pre-drug, coculture with fibroblast (fraction); higher = more viable cancer cells
Details: 100 µM
Protocol: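 JC-1 labelled TNBC cells cocultured 1:1 (1,500 cells each) with CellTrace Violet stained primary or stromal fibroblasts in 384-well plates in FluoroBrite medium, treated with one of 42 anticancer drugs at 0.1, 1, 10 or 100 uM. JC-1 red fluorescence (mitochondrial integrity in cancer cells only) was read by plate reader every 8 h for 72 h. Values are normalised to each well's pre-drug value. The stock of one drug was tenfold lower, so its dose labels may be too high.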

O=C(O)C(=O)O.[NH-][C@@H]1CCCC[C@H]1[NH-].[Pt+2] [Oxaliplatin]
Details	relative JC-1 red fluorescence
8 h	0.954
16 h	0.839
24 h	0.7846
32 h	0.754
40 h	0.689
48 h	0.646
56 h	0.625
64 h	0.584
72 h	0.573

relative JC-1 red fluorescence
Details	8 h	16 h	24 h	32 h	40 h	48 h	56 h	64 h	72 h
coculture fibroblast: C12385	0.867	0.74996	0.679	0.599	0.535	0.501	0.469	0.452	0.434
coculture fibroblast: H6013	0.9333	0.868	0.8135	0.784	0.723	0.688	0.6482	0.6217	0.589
coculture fibroblast: H6019	0.81	0.707	0.644	0.543	0.481	0.446	0.413	0.391	0.3633
coculture fibroblast: H6076	0.956	0.833	0.792	0.744	0.691	0.676	0.639	0.604	0.5867
coculture fibroblast: H6231	0.933	0.881	0.807	0.757	0.704	0.678	0.635	0.613	0.593
coculture fibroblast: HADF	0.9433	0.869	0.804	0.7578	0.714	0.681	0.6377	0.6254	0.591
coculture fibroblast: HCFa	0.9415	0.887	0.863	0.8271	0.788	0.774	0.741	0.728	0.698
coculture fibroblast: HCPF	0.88	0.915	0.859	0.818	0.769	0.747	0.726	0.681	0.649
coculture fibroblast: HHSteC	0.904	0.792	0.749	0.718	0.671	0.635	0.614	0.587	0.553
coculture fibroblast: HMF	0.919	0.815	0.77	0.7345	0.677	0.6484	0.621	0.593	0.569
coculture fibroblast: HPFa	0.883	0.845	0.805	0.763	0.737	0.708	0.666	0.648	0.616
coculture fibroblast: HUF	0.8967	0.769	0.7278	0.631	0.564	0.523	0.483	0.463	0.445
coculture fibroblast: Hs27A	0.907	0.863	0.806	0.773	0.73	0.715	0.683	0.682	0.634
coculture fibroblast: Hs343T	0.93	0.8065	0.773	0.745	0.694	0.673	0.641	0.616	0.609
coculture fibroblast: WS1	0.87324	0.765	0.682	0.601	0.539	0.517	0.479	0.459	0.446

— the supplement of paper PMC6078165
